Results reported in US12505549B1, “Microscopy image analyses for disease modeling” (Insitro, Inc., priority 2020, dated 2025).
For at least one compound, name, drawing or mass did not settle the structure.

Assays:
TSC2ko neurons = assay: scRNAseq and UMAP embedding of pooled iPSC-derived neurons (WT, TSC2 KO, het lines) treated with drugs; assay type: cell-based, human; details: 100 nM, dosed day 14 and day 16, scRNAseq day 17
knockout treated cells = assay: Microscopy tile embeddings (deep neural network, UMAP) of WT and KO lines with treatment; assay type: cell-based; details: UMAP projector calculated on untreated WT/KO tile embeddings
Text: FIG. 16C depicts an example embedding showing phenotypic distinction between wild type and knockout cells. FIG. 16C was generated by projecting embeddings extracted from a deep neural network down to two dimensions using UMAP. The neural network model was trained in a supervised manner to discriminate between sick/healthy based on labels for WT and KO lines respectively. Each point in the figure corresponds to a tile of the original microscopy image. The points represented here are only for the WT and KO groups without treatment.
FIG. 16D depicts the use of embeddings for validating known effects of treatments (e.g., rapamycin and everolimus). The following figure uses the same UMAP projector calculated on tile embeddings of WT/KO with no treatment to project the embeddings representing treatment groups into the same space.

CO[C@H]1C[C@@H]2CC[C@@H](C)[C@@](O)(O2)C(=O)C(=O)N2CCCC[C@H]2C(=O)O[C@H]([C@H](C)C[C@@H]2CC[C@@H](O)[C@H](OC)C2)CC(=O)[C@H](C)/C=C(\C)[C@@H](O)[C@@H](OC)C(=O)[C@H](C)C[C@H](C)/C=C/C=C/C=C/1C [rapamycin]
transcriptional state in UMAP embedding (FIGS. 16A, 16B) (TSC2ko neurons): moved to a distinctive transcriptional state | shift of knockout cells in image embedding (FIG. 16D) (knockout treated cells): induces knockout treated cells to revert back towards a healthy phenotype
